Measurements as given in publication PMC13434659.
Results are given in words; binding and its absence hold for the method and conditions named. In cells and extracts the contact can be indirect. Here binding means that the protein was enriched with, or labelled near, the bait; the list need not be complete. Tags and fused reporters may be left off the sequences shown.

Biological target: T1, human PKD2, transiently over-expressed in HEK293T cells (tag not stated) (human) (UniProt Q13563)
T1 sequence: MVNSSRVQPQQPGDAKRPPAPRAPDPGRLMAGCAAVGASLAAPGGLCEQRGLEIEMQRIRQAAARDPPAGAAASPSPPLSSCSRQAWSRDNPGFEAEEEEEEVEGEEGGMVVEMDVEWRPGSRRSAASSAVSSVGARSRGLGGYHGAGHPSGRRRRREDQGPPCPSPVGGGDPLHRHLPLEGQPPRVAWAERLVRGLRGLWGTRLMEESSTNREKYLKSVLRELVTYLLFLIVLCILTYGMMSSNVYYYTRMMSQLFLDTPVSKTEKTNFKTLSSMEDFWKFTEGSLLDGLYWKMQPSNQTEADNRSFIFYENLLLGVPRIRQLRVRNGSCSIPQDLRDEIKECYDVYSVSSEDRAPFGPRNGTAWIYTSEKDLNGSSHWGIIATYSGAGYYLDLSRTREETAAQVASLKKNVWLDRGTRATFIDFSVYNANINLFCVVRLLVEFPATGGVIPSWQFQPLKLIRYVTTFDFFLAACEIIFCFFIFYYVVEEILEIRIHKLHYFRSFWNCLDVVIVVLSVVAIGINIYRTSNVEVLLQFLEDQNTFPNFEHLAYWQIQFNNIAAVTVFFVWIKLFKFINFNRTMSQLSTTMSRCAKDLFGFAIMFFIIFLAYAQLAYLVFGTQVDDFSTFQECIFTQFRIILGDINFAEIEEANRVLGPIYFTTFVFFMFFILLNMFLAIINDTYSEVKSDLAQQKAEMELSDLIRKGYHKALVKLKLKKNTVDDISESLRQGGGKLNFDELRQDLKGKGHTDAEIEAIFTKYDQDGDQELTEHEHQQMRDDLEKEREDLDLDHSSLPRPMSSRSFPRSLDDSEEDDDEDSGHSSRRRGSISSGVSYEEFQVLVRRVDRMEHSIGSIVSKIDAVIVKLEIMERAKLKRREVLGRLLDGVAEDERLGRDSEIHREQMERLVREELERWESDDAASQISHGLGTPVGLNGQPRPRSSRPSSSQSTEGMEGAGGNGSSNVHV
Assay: proximity labelling; biotin neighborhood labeling in HEK293T cells transiently overexpressing human PKD2, enriched complexes analysed by LC-MS/MS

B1: endogenous RASSF4 of HEK cells (protein, UniProt Q9H2L5 1-321)
chain: MKEDCLPSSHVPISDSKSIQKSELLGLLKTYNCYHEGKSFQLRHREEEGTLIIEGLLNIAWGLRRPIRLQMQDDREQVHLPSTSWMPRRPSCPLKEPSPQNGNITAQGPSIQPVHKAESSTDSSGPLEEAEEAPQLMRTKSDASCMSQRRPKCRAPGEAQRIRRHRFSINGHFYNHKTSVFTPAYGSVTNVRVNSTMTTLQVLTLLLNKFRVEDGPSEFALYIVHESGERTKLKDCEYPLISRILHGPCEKIARIFLMEADLGVEVPHEVAQYIKFEMPVLDSFVEKLKEEEEREIIKLTMKFQALRLTMLQRLEQLVEAK
**Q.** How did the binding turn out when B1 was run?
**A.** binds
